PubChem BioAssay AID1508588, Peter MacCallum Cancer Centre | 2020
In all, the deposit lists about 18,000 reagents; shown is a part drawn at random. 790 of all reagents (4.4%) count as active. 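Calls rest on a combination of fold-change classes in drug and vehicle arms, not all shown here.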

- Assay: 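Which gene losses make BRAF-mutant melanoma cells more responsive to vemurafenib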 (primary screen)
- Cell system: human WM266.4 melanoma cells (BRAF V600 mutant)
- Knock-down reagent: siRNA pool against human genes, 40 nM
- Duration: 96 h from transfection to read-out
- Challenge: vemurafenib 300 nM (about IC25), added 48 h after transfection, for 48 h; comparison arm got DMSO vehicle only
- Measured: 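Cell gain (DAPI nuclei at end minus before drug, mean of two replicates) and medium lactate by absorbance per cell, both as ratio to non-targeting siRNA, also grouped into fold-change classes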
- Scale: cell gain with vemurafenib: higher = more cell gain than with non-targeting siRNA; lactate per cell with vemurafenib: higher = more lactate made per cell
- Active means: 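Enhancement is called by pairing each knock-down's vehicle-arm and drug-arm fold-change classes for viability or glycolysis; which class combinations qualify is not given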
- Meaning of the calls: active = enhances vemurafenib effect; inactive = no enhancement seen

For MYH10 (myosin heavy chain 10), the entry reads cell gain with vemurafenib 0.95; lactate per cell with vemurafenib 1.23; inactive.
Depletion of RAB1B (RAB1B, member RAS oncogene family) gave: cell gain with vemurafenib 0.04; lactate per cell with vemurafenib 3.66; inactive.
After knock-down of FXYD5 (FXYD domain containing ion transport regulator 5) the results were cell gain with vemurafenib 0.44; lactate per cell with vemurafenib 1.38; inactive.
Knock-down of AP1B1 (adaptor related protein complex 1 subunit beta 1) gave: cell gain with vemurafenib 0.12; lactate per cell with vemurafenib 0.92; inactive.
Knock-down of TEX35 (testis expressed 35) came out at: cell gain with vemurafenib 0.43; lactate per cell with vemurafenib 0.66; inactive.
For MCM2 (minichromosome maintenance complex component 2), the entry reads cell gain with vemurafenib 0.33; lactate per cell with vemurafenib 1.87; inactive.
Against CYP4F22 (cytochrome P450 family 4 subfamily F member 22), the values are cell gain with vemurafenib 1.06; lactate per cell with vemurafenib 0.48; inactive.
For GFAP (glial fibrillary acidic protein), the entry reads cell gain with vemurafenib 0.37; lactate per cell with vemurafenib 1.41; inactive.
For CEBPD (CCAAT enhancer binding protein delta), the entry reads cell gain with vemurafenib 0.22; lactate per cell with vemurafenib 1.62; inactive.
For MTERF3 (mitochondrial transcription termination factor 3) the deposit lists cell gain with vemurafenib 0.83; lactate per cell with vemurafenib 0.84; inactive.
GMPPA (GDP-mannose pyrophosphorylase A) showed cell gain with vemurafenib 1.1; lactate per cell with vemurafenib 1.13; inactive.
For COX10 the deposit lists cell gain with vemurafenib 0.44; lactate per cell with vemurafenib 1.39; inactive.
With knock-down of COG6 (component of oligomeric golgi complex 6) the results were cell gain with vemurafenib 1.06; lactate per cell with vemurafenib 1.6; inactive.
Against NIT2 (nitrilase family member 2) the deposit lists cell gain with vemurafenib 0.55; lactate per cell with vemurafenib 0.7; inactive.
Against DUSP15 (dual specificity phosphatase 15), the values are cell gain with vemurafenib 0.5; lactate per cell with vemurafenib 1.59; inactive.
With knock-down of TMEM234 (transmembrane protein 234), the record shows cell gain with vemurafenib 0.45; lactate per cell with vemurafenib 0.6; inactive.
Depletion of GBA2 (glucosylceramidase beta 2) gave: cell gain with vemurafenib 0.47; lactate per cell with vemurafenib 1.38; inactive.
With knock-down of IFT122 (intraflagellar transport 122), the record shows cell gain with vemurafenib 0.27; lactate per cell with vemurafenib 0.69; inactive.
Silencing of NDUFS8 (NADH:ubiquinone oxidoreductase core subunit S8) resulted in: cell gain with vemurafenib 0.8; lactate per cell with vemurafenib 1.06; inactive.
OLFML3 (olfactomedin like 3) gave cell gain with vemurafenib 0.46; lactate per cell with vemurafenib 1.48; inactive.
Depletion of EBF3 (EBF transcription factor 3) gave: cell gain with vemurafenib 0.67; lactate per cell with vemurafenib 0.94; inactive.
After knock-down of GABRA4 (gamma-aminobutyric acid type A receptor subunit alpha4) the results were cell gain with vemurafenib 0.47; lactate per cell with vemurafenib 1.71; inactive.
Depletion of PDXDC1 (pyridoxal dependent decarboxylase domain containing 1) resulted in: cell gain with vemurafenib 0.57; lactate per cell with vemurafenib 0.97; inactive.
For DENR (density regulated re-initiation and release factor), the entry reads cell gain with vemurafenib 0.81; lactate per cell with vemurafenib 0.63; inactive.
After knock-down of LENG8 (leukocyte receptor cluster member 8), the record shows cell gain with vemurafenib 0.54; lactate per cell with vemurafenib 1.35; inactive.
Depletion of CPB1 (carboxypeptidase B1) resulted in: cell gain with vemurafenib 0.01; lactate per cell with vemurafenib 1.01; inactive.
FAM228A (family with sequence similarity 228 member A) showed cell gain with vemurafenib 0.1; lactate per cell with vemurafenib 1.55; inactive.
Knock-down of HMGN4 (high mobility group nucleosomal binding domain 4) gave: cell gain with vemurafenib 0.05; lactate per cell with vemurafenib 1.66; inactive.
After knock-down of HOXB3 (homeobox B3) the results were cell gain with vemurafenib 0.68; lactate per cell with vemurafenib 1.44; inactive.
For SCLT1 (sodium channel and clathrin linker 1), the entry reads cell gain with vemurafenib 0.66; lactate per cell with vemurafenib 0.44; active.
Knock-down of SNTB2 (syntrophin beta 2) came out at: cell gain with vemurafenib 0.41; lactate per cell with vemurafenib 0.74; inactive.
For NXPH2 (neurexophilin 2), the values are cell gain with vemurafenib 0; lactate per cell with vemurafenib 3.73; inactive.
TBX22 (T-box transcription factor 22) gave cell gain with vemurafenib 0.66; lactate per cell with vemurafenib 0.76; inactive.
With knock-down of FGFBP3 (fibroblast growth factor binding protein 3), the record shows cell gain with vemurafenib 0.4; lactate per cell with vemurafenib 1.8; inactive.
Depletion of RYR2 (ryanodine receptor 2) resulted in: cell gain with vemurafenib 0.96; lactate per cell with vemurafenib 0.97; inactive.
TBCEL (tubulin folding cofactor E like) showed cell gain with vemurafenib 0.62; lactate per cell with vemurafenib 0.66; inactive.
Silencing of PPP1R27 (protein phosphatase 1 regulatory subunit 27) resulted in: cell gain with vemurafenib 0.76; lactate per cell with vemurafenib 0.36; inactive.
With knock-down of MRPS5 (mitochondrial ribosomal protein S5) the results were cell gain with vemurafenib 0.48; lactate per cell with vemurafenib 0.94; inactive.
After knock-down of ZNF141 (zinc finger protein 141), the record shows cell gain with vemurafenib 0.25; lactate per cell with vemurafenib 1.08; inactive.
Knock-down of RHOD (ras homolog family member D) came out at: cell gain with vemurafenib 0.53; lactate per cell with vemurafenib 0.24; inactive.

Part of the list above, set out differently:
{"gene": "GABRA4 (gamma-aminobutyric acid type A receptor subunit alpha4)", "cell gain with vemurafenib": 0.47, "lactate per cell with vemurafenib": 1.71, "activity call": "inactive"}
{"gene": "PDXDC1 (pyridoxal dependent decarboxylase domain containing 1)", "cell gain with vemurafenib": 0.57, "lactate per cell with vemurafenib": 0.97, "activity call": "inactive"}
{"gene": "DENR (density regulated re-initiation and release factor)", "cell gain with vemurafenib": 0.81, "lactate per cell with vemurafenib": 0.63, "activity call": "inactive"}
{"gene": "LENG8 (leukocyte receptor cluster member 8)", "cell gain with vemurafenib": 0.54, "lactate per cell with vemurafenib": 1.35, "activity call": "inactive"}
